{
  "source": "the supplement of paper PMC5355238",
  "note": "Counter-ions that a name gives are not always drawn. The list shows a part of the results. Single values are uncertain, as repeats are few or missing.",
  "data": [
    {"tested_on": "Reh", "assay": "S-phase gammaH2AX median, Z-score vs plate median (drug alone); higher = more S-phase DNA damage", "settings": "MK1775 concentration 0 nM; 10 µM; 4 h", "values": [
      {"smiles": "Cc1nc2sccn2c(=O)c1CCN1CCC(=C(c2ccccc2)c2ccc(F)cc2)CC1", "note": "[Diacylglycerol kinase inhibitor I]", "S-phase gammaH2AX median (Z-score)": 0.0252},
      {"smiles": "O=C1CN(/N=C/c2ccc(-c3ccc([N+](=O)[O-])cc3)o2)C(=O)N1", "note": "[Dantrolene sodium]", "S-phase gammaH2AX median (Z-score)": -0.0063},
      {"smiles": "Nc1[nH]nc2nnc(-c3c(-c4ccccc4)nn4ccccc34)cc12", "S-phase gammaH2AX median (Z-score)": -0.0228},
      {"smiles": "O=C(c1ccc2c(c1)OCCO2)N1CCCCC1", "S-phase gammaH2AX median (Z-score)": 0.0136},
      {"smiles": "CC(C)CN(C)c1nc(N)c(C(=O)N=C(N)N)nc1Cl", "note": "[5-(N-Methyl-N-isobutyl)amiloride]", "S-phase gammaH2AX median (Z-score)": 0.596},
      {"smiles": "C[C@]12C[C@H](O)[C@H]3[C@@H](CCC4=CC(=O)CC[C@@]43C)[C@@H]1CC[C@@H]2C(=O)CO", "note": "[Corticosterone]", "S-phase gammaH2AX median (Z-score)": -0.0311},
      {"smiles": "COc1ccc(S(=O)(=O)Nc2cccnc2Nc2ccc(O)cc2)cc1", "S-phase gammaH2AX median (Z-score)": 0.046},
      {"smiles": "O=C(CCCCCCC(=O)Nc1ccccc1)NO", "note": "[Vorinostat (SAHA)]", "S-phase gammaH2AX median (Z-score)": 0.471},
      {"smiles": "Cc1cc(C)c(NC(=O)C[C@H](CC(=O)O)c2cccc3ccccc23)c(C(=O)N2CCC3(CCCC3)CC2)c1", "S-phase gammaH2AX median (Z-score)": -0.22},
      {"smiles": "Oc1ccc(Cn2cc[nH]c2=S)cc1", "note": "[1-(4-Hydroxybenzyl)imidazole-2-thiol]", "S-phase gammaH2AX median (Z-score)": 0.0819},
      {"smiles": "COc1ccccc1N1CCN(CCN(C(=O)c2ccc(F)cc2)c2ccccn2)CC1", "note": "[p-MPPF dihydrochloride]", "S-phase gammaH2AX median (Z-score)": 0.0473},
      {"smiles": "c1ccc(-c2ccccn2)nc1", "note": "[2,2'-Bipyridyl]", "S-phase gammaH2AX median (Z-score)": -0.0724},
      {"smiles": "O=C(O)c1ccc2c(c1)nc(Nc1cccc(Cl)c1)c1ccncc12", "note": "[cx-4945 (Silmitasertib)]", "S-phase gammaH2AX median (Z-score)": -0.205},
      {"smiles": "COc1cc2/c(=N/c3ccc(Br)cc3F)nc[nH]c2cc1OCC1CCN(C)CC1", "note": "[Vandetanib (Zactima)]", "S-phase gammaH2AX median (Z-score)": -0.0769},
      {"smiles": "CCN(CC)C(=S)SSC(=S)N(CC)CC", "note": "[Disulfiram (Antabuse)]", "S-phase gammaH2AX median (Z-score)": 0.215},
      {"smiles": "C=C[C@@]1(C)CC(=O)[C@]2(O)[C@@]3(C)[C@@H](O)CCC(C)(C)[C@@H]3[C@H](O)[C@H](OC(C)=O)[C@@]2(C)O1", "note": "[Forskolin]", "S-phase gammaH2AX median (Z-score)": -0.255},
      {"smiles": "Nc1c2c(nc3ccccc13)CCCC2", "note": "[9-Amino-1,2,3,4-tetrahydroacridine hydrochloride]", "S-phase gammaH2AX median (Z-score)": -0.0621},
      {"smiles": "NC(CCCP(=O)(O)O)C(=O)O", "note": "(stereo unspecified) [(?)-2-Amino-5-phosphonopentanoic acid]", "S-phase gammaH2AX median (Z-score)": 0.0408},
      {"smiles": "O=C(O)C(Cc1c[nH]c2ccccc12)N1C(=O)c2ccccc2C1=O", "note": "(stereo unspecified)", "S-phase gammaH2AX median (Z-score)": -0.0151},
      {"smiles": "CCCCCN(CCCCC)C(=O)C(CCC(=O)O)NC(=O)c1ccc(Cl)c(Cl)c1", "note": "(stereo unspecified) [Lorglumide sodium]", "S-phase gammaH2AX median (Z-score)": -0.173},
      {"smiles": "CC(C)NCC(O)c1ccc(O)c(O)c1", "note": "(stereo not drawn) [S(+)-Isoproterenol (+)-bitartrate]", "S-phase gammaH2AX median (Z-score)": -0.239},
      {"smiles": "CC(C)NCC(O)c1ccc(O)c(O)c1", "note": "(stereo unspecified) [(?)-Isoproterenol hydrochloride]", "S-phase gammaH2AX median (Z-score)": -0.29},
      {"smiles": "CS(=O)(=O)N1CCN(Cc2cc3nc(-c4cccc5[nH]ncc45)nc(N4CCOCC4)c3s2)CC1", "S-phase gammaH2AX median (Z-score)": -0.14},
      {"smiles": "NCCSSCCN", "note": "[Cystamine dihydrochloride]", "S-phase gammaH2AX median (Z-score)": 0.00971},
      {"smiles": "Nc1nc2c(ncn2COCCO)c(=O)[nH]1", "note": "[Acyclovir]", "S-phase gammaH2AX median (Z-score)": 0.177},
      {"smiles": "COC(=O)c1c(C)[nH]c(C)c1C(=O)c1ccccc1Cc1ccccc1", "S-phase gammaH2AX median (Z-score)": -0.0063},
      {"smiles": "COc1cc(C(O)CO)ccc1OS(=O)(=O)O", "note": "(stereo unspecified) [MHPG sulfate potassium]", "S-phase gammaH2AX median (Z-score)": 0.101},
      {"smiles": "CN1[C@@H]2CC[C@H]1CC(OC(=O)c1c[nH]c3ccccc13)C2", "note": "(stereo partly specified) [3-Tropanyl-indole-3-carboxylate hydrochloride]", "S-phase gammaH2AX median (Z-score)": -0.187},
      {"smiles": "CCCCCCCCCCCCCCCCCCOCC(COP(=O)([O-])OCC[N+](C)(C)C)OC", "note": "(stereo unspecified)", "S-phase gammaH2AX median (Z-score)": -0.00945},
      {"smiles": "COc1ccc(/C=C\\c2cc(OC)c(OC)c(OC)c2)cc1O", "note": "[Combretastatin A4]", "S-phase gammaH2AX median (Z-score)": -0.0738},
      {"smiles": "CCCC1O[C@@H]2C[C@H]3[C@@H]4CCC5=CC(=O)C=C[C@]5(C)[C@H]4[C@@H](O)C[C@]3(C)[C@]2(C(=O)CO)O1", "note": "(stereo partly specified) [Budesonide]", "S-phase gammaH2AX median (Z-score)": 0.0641},
      {"smiles": "NCCC1CCCC(CCN)N1", "note": "(stereo unspecified) [MDL 26,630 trihydrochloride]", "S-phase gammaH2AX median (Z-score)": -0.0568},
      {"smiles": "CCOC(=O)c1ncn2c1CN(C)C(=O)c1cc(F)ccc1-2", "note": "[Flumazenil]", "S-phase gammaH2AX median (Z-score)": -0.148},
      {"smiles": "O=NN(CCCl)C(=O)NCCCl", "note": "[Carmustine]", "S-phase gammaH2AX median (Z-score)": 0.0155},
      {"smiles": "NCC(O)(CS(=O)(=O)O)c1ccc(Cl)cc1", "note": "(stereo unspecified) [2-Hydroxysaclofen]", "S-phase gammaH2AX median (Z-score)": -0.0951},
      {"smiles": "N/C(=N\\C(=O)c1nc(Cl)c(N)nc1N)NCc1ccc(Cl)c(Cl)c1", "note": "[3',4'-Dichlorobenzamil]", "S-phase gammaH2AX median (Z-score)": -0.498},
      {"smiles": "CC[C@H](NC(=O)c1c(C)c(-c2ccccc2)nc2ccccc12)c1ccccc1", "S-phase gammaH2AX median (Z-score)": 0.0699},
      {"smiles": "CC(C(=O)O)c1cccc(C(=O)c2ccccc2)c1", "note": "(stereo unspecified) [Ketoprofen]", "S-phase gammaH2AX median (Z-score)": 0.0661},
      {"smiles": "Nc1nc(N)c2nc(CNc3ccc(C(=O)N[C@@H](CCC(=O)O)C(=O)O)cc3)cnc2n1", "note": "[Aminopterin]", "S-phase gammaH2AX median (Z-score)": 0.109},
      {"smiles": "O=C1O/C(=C/Br)CCC1c1cccc2ccccc12", "note": "(stereo unspecified) [Bromoenol lactone]", "S-phase gammaH2AX median (Z-score)": -0.113},
      {"smiles": "O=c1c(-c2ccc(O)cc2)coc2cc(O)ccc12", "note": "[Daidzein]", "S-phase gammaH2AX median (Z-score)": 0.12}
    ]}
  ]
}
